PubChem BioAssay AID1259254 | NCATS – 2017

Aim: 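Gene knock-downs that lead to re-replication, shown by excess G2 DNA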 (primary screen)
Cells: human HCT116 colorectal cancer cells
Reagent: single siRNA against human genes
Timing: 3 days
Read-out: 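Nuclei stained with Hoechst and imaged; cell-cycle phase assigned by DNA content; G2 share scaled per plate, non-targeting siRNA 0%, GMNN siRNA 100%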
Scale: G2 robust z-score and G2 cells, % of GMNN control: higher = more G2 cells, more excess DNA replication; raw share of cells in G2: higher = larger share of cells with G2 DNA content
Call rule: 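An siRNA counts as active if its G2 robust z-score lies at least 5 MADs above the screen median; here such calls match roughly 38% of GMNN control or more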
Shown is an unselected part of about 59,000 deposited reagents. Over the whole deposit, about 1,550 (2.6%) were called active. 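G2 share is only a proxy for re-replication; each gene was hit by three separate siRNAs, and active genes were retested.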 The raw values are shown without normalisation. Entries without a mark were called inactive. Reagents against one gene are numbered here. No sequences are given here. Not given: the amount of reagent.

no.	gene symbol	siRNA no.	G2 robust z-score	G2 cells, % of GMNN control	raw share of cells in G2 (%)
1	KIF24	1	-1.29	-6.08	1.9
2	KIF24	2	-0.354	0.477	3.47
3	KIF24	3	-0.711	-2.04	3.37
4	MATN4	1	-0.924	-3.53	2.35
5	MATN4	2	-0.958	-3.77	4.31
6	MATN4	3	-0.648	-1.59	2.67
7	GIMAP8	1	-0.624	-1.42	3.09
8	GIMAP8	2	-0.189	1.64	3.51
9	GIMAP8	3	6.42 (active)	48.1	18
10	KLC3	1	0.72	8.03	8.08
11	KLC3	2	-1.03	-4.28	3.14
12	KLC3	3	1.99	17	14

Just “G2 robust z-score” (2 entries from above):
MATN4 #3: -0.648
GIMAP8 #1: -0.624

Further records follow.
no.	gene symbol	siRNA no.	G2 robust z-score	G2 cells, % of GMNN control	raw share of cells in G2 (%)
13	EXOC1L	1	-0.0121	2.88	4.74
14	EXOC1L	2	0.255	4.76	4.99
15	EXOC1L	3	-0.133	2.03	3.74
16	TRHR	1	-1.25	-5.8	3.77
17	TRHR	2	0.0867	3.58	5.77
18	TRHR	3	-0.109	2.2	3.94
19	PRR3	1	-0.474	-0.367	4.29
20	PRR3	2	1.3	12.1	9.6
21	PRR3	3	1.24	11.7	5.57
22	PIK3CA	1	1.64	14.5	10.4
23	PIK3CA	2	2.92	23.5	13.3
24	PIK3CA	3	1.74	15.2	9.39
25	SLC25A20	1	1.53	13.7	9.39
26	SLC25A20	2	-1.04	-4.34	3.53
27	SLC25A20	3	-0.835	-2.91	2.91
28	CDC50B	1	1.35	12.5	8.07
29	CDC50B	2	0.969	9.79	6.24
30	CDC50B	3	0.0295	3.18	3.77
